Patent publication US9937234B2, “Compositions and methods for using and identifying antimicrobial agents” (priority 2013, dated 2018)
Some results were stated once for a whole list of compounds, not compound by compound.

Test system: B. anthracis Sterne strain bacilli
Assay type: cell-based, Bacillus anthracis

B1: murine CXCL9 (protein, listed as Mus musculus)
chain: KSAVLFLLGIIFLEQCGVRGTLVIRNARCSCISTSRGTIHYKSLKDLKQFAPSPNCNKTEIIATLKNGDQTCLDPDSANVKKLMKEWE
Question: For B1, which “50% effective concentration (EC50)” value is on record?
Answer: 4 to 6 µg/mL
